Results reported in article doi:10.1101/2024.11.15.623754.
These are yes or no findings as the source states them, for the method shown. In cells and extracts the contact can be indirect. Some entries that bind do so weakly or less than the wild type. Sequences can lack the tags named with a protein.

Protein sequences, listed by entry. Tags and fused reporters are not part of them.
UniProt Q61990: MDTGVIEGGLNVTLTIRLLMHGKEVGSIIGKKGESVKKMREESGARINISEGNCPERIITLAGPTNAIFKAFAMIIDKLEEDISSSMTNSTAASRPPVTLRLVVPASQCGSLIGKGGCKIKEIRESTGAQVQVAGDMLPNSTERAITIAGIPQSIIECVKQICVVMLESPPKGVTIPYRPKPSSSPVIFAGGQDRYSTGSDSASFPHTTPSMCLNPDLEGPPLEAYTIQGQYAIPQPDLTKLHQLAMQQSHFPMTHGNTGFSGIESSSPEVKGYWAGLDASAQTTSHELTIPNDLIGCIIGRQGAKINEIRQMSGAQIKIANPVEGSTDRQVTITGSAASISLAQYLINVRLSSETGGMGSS

Molecular target: Poly-C Binding Protein 2 (PCBP2) (mouse (endogenous in murine hepatocyte 3A cells)) (UniProt Q61990)
Assay: co-IP

B1: Synaptotagmin-binding Cytoplasmic RNA-Interacting Protein (SYNCRIP) (protein, UniProt Q7TMK9 1-623)
chain: MATEHVNGNGTEEPMDTTSAVIHSENFQTLLDAGLPQKVAEKLDEIYVAGLVAHSDLDERAIEALKEFNEDGALAVLQQFKDSDLSHVQNKSAFLCGVMKTYRQREKQGTKVADSSKGPDEAKIKALLERTGYTLDVTTGQRKYGGPPPDSVYSGQQPSVGTEIFVGKIPRDLFEDELVPLFEKAGPIWDLRLMMDPLTGLNRGYAFVTFCTKEAAQEAVKLYNNHEIRSGKHIGVCISVANNRLFVGSIPKSKTKEQILEEFSKVTEGLTDVILYHQPDDKKKNRGFCFLEYEDHKTAAQARRRLMSGKVKVWGNVGTVEWADPIEDPDPEVMAKVKVLFVRNLANTVTEEILEKSFSQFGKLERVKKLKDYAFIHFDERDGAVKAMEEMNGKDLEGENIEIVFAKPPDQKRKERKAQRQAAKNQMYDDYYYYGPPHMPPPTRGRGRGGRGGYGYPPDYYGYEDYYDYYGYDYHNYRGGYEDPYYGYEDFQVGARGRGGRGARGAAPSRGRGAAPPRGRAGYSQRGGPGSARGVRGARGGAQQQRGRGVRGARGGRGGNVGGKRKADGYNQPDTKRRQTNNQNWGSQPIAQQPLQGGDHSGNYGYKSENQEFYQDTFGQQWK
  binding: binds
